Test results: paper PMC6802841
These are yes or no findings as the source states them, for the method shown. Binding can be weak; no strength is given.

Assays:
Assay in all cases: two-hybrid; mature SAP11 proteins in pDEST-GAD-T7, full length TCPs or TCP domains in pDEST-GBK-T7; S. cerevisiae AH109; growth on media without leucine, tryptophan and histidine with 20 mM 3-Amino-1,2,4-triazole (3AT)
[1] = target: T1, AtTCP2, full length (Arabidopsis thaliana) (UniProt Q93V43)
T1 sequence: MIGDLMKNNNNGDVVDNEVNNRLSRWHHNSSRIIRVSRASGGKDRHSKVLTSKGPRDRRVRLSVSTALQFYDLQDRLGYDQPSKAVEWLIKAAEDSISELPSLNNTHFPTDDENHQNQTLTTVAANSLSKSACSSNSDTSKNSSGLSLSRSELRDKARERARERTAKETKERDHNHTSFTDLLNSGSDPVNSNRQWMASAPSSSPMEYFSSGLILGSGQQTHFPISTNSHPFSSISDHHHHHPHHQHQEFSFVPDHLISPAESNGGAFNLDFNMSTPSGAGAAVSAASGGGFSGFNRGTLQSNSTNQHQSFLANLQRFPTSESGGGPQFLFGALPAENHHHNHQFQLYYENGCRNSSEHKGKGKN

[2] = target: T2, BRANCHED 1 (BRC1, AtTCP18), full length (Arabidopsis thaliana) (UniProt A1YKT1)
T2 sequence: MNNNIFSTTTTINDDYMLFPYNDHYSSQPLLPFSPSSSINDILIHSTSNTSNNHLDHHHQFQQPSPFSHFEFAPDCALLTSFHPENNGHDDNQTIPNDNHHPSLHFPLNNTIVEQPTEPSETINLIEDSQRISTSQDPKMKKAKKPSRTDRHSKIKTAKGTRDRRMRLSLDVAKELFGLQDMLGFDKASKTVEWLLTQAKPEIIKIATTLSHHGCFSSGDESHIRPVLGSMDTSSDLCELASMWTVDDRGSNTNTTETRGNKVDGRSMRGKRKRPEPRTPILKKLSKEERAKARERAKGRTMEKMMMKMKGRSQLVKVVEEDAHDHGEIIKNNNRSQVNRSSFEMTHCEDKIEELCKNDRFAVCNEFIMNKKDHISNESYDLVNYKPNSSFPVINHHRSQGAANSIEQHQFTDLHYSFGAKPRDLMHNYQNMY

[3] = target: T3, TCP domain of AtTCP2 (Arabidopsis thaliana) (UniProt Q93V43)
T3 sequence: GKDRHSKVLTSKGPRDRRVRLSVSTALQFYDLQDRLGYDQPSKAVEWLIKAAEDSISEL

[4] = target: T4, TCP domain of BRC1 (AtTCP18) (Arabidopsis thaliana) (UniProt A1YKT1)
T4 sequence: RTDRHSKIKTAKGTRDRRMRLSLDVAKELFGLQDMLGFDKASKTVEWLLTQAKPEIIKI

[5] = target: T5, TEOSINTE BRANCHED 1 (TB1, ZmTCP02), full length (Zea mays) (UniProt Q93WI2)
T5 sequence: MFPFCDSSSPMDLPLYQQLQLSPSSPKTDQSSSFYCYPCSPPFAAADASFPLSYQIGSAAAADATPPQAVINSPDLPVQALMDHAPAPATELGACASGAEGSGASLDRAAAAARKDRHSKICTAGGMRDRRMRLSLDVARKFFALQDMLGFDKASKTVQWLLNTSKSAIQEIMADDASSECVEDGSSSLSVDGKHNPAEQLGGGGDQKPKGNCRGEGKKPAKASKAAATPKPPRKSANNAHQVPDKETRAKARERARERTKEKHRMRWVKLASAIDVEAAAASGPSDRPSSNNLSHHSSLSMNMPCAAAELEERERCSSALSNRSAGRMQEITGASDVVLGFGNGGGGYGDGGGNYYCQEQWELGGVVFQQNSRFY

Measured: binding

secreted AYWB protein 11 (SAP11) of Aster Yellows phytoplasma strain Witches' Broom
binds: [1] | [2] | [3] | [4] | [5]

SAP11 homolog of Maize Bushy Stunt Phytoplasma (MBSP)
binds: [2] | [4] | [5]
